Measurements published in article PMC10397248, “A novel N^6-Deoxyadenine methyltransferase METL-9 modulates C. elegans immunity via dichotomous mechanisms” (Cell Research, 2023).
No constants are given. Whether binding was seen depends on the method and setting. In cells and extracts the contact can be indirect. These calls come from enrichment with a bait or labelling near it, and not all partners need be listed.

Chains of the proteins cited; added tags and fusions are not shown. Lines headed by an entry give the natural chain unless they say otherwise; changes in a name come on top.
UniProt Q22123: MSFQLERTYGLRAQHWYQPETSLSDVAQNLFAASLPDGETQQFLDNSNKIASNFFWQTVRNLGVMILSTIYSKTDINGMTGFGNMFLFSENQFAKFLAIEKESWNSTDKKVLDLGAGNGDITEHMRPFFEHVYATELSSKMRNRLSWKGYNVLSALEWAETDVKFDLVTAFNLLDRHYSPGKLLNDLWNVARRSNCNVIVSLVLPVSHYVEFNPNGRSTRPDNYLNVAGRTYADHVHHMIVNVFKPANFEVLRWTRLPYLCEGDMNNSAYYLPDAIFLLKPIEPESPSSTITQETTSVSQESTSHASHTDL

Target: METL-9 (C. elegans (endogenous in C. elegans)) (UniProt Q22123)
Assay: affinity purification with mass spectrometry; METL-9 immunoprecipitation from C. elegans upon infection, followed by mass spectrometry

binding: binds
B1: DVE-1 (protein, UniProt Q86MI0 1-468)
chain: MFPMRVIVETVRSQHCLTCSNEGHMITDTYAIVAGTTTLNQLVETVLAALGHSSMSTSARGLIQVNNWKPLPFDQITENLDDTVENLFKDISSHVVLKILSKPSTDSNSVQCISEVKNKLLKAAVNKNPNVLTNVDNQQVKDVINTIIAGDETLLNSEQIGAVNEWLDTLETNEDRRSPTQVQRFNTLYEIPRLDKWFKSDANPSKQKMNNYLSQLNQSPFRKNNSKISYQQICNWFTQKRSSSRTLAPVDLVQVSSAQTAAQLLPGFQLNLLQSLFGEQRQKFDFYDKLDETKIVGGSDSPSPADDEIHSNSDETIQDTLFSINIKPEPEIDSIASSPDMANSMRESLSSTSPKLLSGLDLGAFSTHSSSTNSMQNANSSVFSAARSRLMFDPLTELPVLEKWFEENPHPTWMQIDQYTQCLNNCAYRENYPHISQHNVKIWFKNRRAKCKRLLNGMQEKLEQKVFV
